# Tested on: Plasmodium falciparum sensitive strain 3D7
# Experiment: P. falciparum asexual blood stage growth, diaphorase-coupled LDH assay
# Assay type: cell-based
# Settings: ratio enzyme IC50 / parasite IC50
SMILES,fold lower IC50 against P. falciparum cells compared to the PfPanK1 enzyme,fold lower IC50 against P. falciparum cells compared to the PfPanK1 enzyme (listed as simaomicin α)
CC(=O)Oc1cccc2c(=O)c3c4c(c(=[N+]=[N-])c=3c(=O)c12)C(OC(C)=O)C(C)(OC(C)=O)C(OC(C)=O)C4OC(C)=O (stereo not shown) [Diacetylkinamycin C],> 10 fold,–
OC[C@H]1O[C@@H](Oc2ccc(/C=C/c3cc(O)c4c(c3)O[C@H](c3ccc(O)cc3)[C@H]4c3cc(O)cc(O)c3)cc2)[C@H](O)[C@@H](O)[C@@H]1O [Gnemonoside D],> 10 fold,–
COc1c2c(c(O)c3c(=O)c4c(oc13)[C@@H](O)CC[C@@H]4O)-c1c3c(c4cc(C)n(C)c(=O)c4c1O)OCO[C@H]3C2 [Simaomicin α],> 10 fold,"more than 10,000 fold"
